Measured values reported in the supplement of paper PMC10849652.
The list shows a part of the results.

Sequences of proteins named here, by UniProt entry; tags and fusion partners are left off. A change or cut given only in a name is not applied to a line headed by its entry.
UniProt Q9UJX4, whole entry, looked up: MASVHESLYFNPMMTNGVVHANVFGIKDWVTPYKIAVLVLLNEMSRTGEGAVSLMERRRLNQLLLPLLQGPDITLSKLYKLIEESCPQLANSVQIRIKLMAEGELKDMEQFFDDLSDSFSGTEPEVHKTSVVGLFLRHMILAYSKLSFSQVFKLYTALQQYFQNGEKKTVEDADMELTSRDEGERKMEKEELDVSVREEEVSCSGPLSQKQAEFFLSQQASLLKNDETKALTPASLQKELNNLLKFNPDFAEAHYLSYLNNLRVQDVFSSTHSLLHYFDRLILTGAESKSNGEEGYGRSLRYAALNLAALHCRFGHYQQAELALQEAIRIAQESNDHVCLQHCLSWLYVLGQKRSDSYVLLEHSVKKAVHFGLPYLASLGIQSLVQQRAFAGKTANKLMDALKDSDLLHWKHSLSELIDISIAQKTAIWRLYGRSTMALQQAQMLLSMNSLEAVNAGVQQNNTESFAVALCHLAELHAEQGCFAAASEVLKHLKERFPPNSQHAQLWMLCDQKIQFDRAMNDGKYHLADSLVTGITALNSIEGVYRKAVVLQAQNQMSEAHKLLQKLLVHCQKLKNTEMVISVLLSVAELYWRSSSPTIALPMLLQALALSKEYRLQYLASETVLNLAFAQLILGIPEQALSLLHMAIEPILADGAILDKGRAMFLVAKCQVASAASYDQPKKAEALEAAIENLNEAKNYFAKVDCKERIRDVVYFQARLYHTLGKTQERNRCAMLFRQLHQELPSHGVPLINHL
UniProt Q9Y6D5: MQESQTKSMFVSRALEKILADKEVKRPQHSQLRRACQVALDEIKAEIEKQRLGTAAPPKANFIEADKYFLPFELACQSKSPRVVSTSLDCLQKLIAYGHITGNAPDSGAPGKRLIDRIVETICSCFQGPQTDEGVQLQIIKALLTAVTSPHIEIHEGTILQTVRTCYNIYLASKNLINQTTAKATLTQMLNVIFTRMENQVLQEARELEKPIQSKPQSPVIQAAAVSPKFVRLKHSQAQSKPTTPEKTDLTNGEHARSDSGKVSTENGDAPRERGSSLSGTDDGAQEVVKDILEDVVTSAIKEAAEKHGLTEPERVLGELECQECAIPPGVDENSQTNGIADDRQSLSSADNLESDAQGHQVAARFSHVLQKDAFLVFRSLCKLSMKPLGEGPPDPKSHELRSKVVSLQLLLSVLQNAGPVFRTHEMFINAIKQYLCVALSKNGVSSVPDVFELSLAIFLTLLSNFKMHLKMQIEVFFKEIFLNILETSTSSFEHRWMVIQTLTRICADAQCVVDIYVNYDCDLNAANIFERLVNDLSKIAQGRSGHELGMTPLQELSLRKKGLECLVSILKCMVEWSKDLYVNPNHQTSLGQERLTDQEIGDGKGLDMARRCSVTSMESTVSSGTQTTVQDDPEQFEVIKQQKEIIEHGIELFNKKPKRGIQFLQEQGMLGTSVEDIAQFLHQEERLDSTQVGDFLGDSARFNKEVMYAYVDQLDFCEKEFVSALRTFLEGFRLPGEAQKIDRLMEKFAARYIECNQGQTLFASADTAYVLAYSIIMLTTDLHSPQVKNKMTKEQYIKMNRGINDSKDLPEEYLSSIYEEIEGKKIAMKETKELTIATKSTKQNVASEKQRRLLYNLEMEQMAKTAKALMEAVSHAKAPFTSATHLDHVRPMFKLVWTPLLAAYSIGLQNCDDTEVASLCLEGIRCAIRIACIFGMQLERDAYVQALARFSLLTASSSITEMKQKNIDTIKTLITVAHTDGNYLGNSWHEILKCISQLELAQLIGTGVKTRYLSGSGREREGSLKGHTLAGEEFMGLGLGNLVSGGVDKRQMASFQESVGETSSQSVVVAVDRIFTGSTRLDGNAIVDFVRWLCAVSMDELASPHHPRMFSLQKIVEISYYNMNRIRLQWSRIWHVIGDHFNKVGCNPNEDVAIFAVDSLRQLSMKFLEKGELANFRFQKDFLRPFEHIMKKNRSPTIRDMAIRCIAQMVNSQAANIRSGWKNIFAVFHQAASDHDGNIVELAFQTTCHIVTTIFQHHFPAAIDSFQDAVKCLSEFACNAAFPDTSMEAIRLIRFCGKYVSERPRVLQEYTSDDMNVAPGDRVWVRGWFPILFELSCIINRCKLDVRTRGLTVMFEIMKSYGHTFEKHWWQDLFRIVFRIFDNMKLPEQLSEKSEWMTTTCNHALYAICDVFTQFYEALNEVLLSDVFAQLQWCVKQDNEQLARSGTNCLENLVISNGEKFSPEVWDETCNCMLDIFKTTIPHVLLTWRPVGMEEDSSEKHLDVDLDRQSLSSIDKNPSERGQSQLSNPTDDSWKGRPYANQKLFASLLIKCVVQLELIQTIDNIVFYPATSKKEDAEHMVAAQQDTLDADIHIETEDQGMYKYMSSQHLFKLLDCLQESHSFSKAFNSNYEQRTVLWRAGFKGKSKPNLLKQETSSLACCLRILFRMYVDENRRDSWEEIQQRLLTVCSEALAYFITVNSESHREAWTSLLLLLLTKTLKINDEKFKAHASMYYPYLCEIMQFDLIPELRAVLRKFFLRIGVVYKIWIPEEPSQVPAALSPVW
UniProt P84077: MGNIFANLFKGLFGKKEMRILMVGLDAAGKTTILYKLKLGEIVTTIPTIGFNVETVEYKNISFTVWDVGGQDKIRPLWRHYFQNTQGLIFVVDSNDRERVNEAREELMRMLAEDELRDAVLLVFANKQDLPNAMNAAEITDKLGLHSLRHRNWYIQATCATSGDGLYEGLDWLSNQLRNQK
UniProt Q10567: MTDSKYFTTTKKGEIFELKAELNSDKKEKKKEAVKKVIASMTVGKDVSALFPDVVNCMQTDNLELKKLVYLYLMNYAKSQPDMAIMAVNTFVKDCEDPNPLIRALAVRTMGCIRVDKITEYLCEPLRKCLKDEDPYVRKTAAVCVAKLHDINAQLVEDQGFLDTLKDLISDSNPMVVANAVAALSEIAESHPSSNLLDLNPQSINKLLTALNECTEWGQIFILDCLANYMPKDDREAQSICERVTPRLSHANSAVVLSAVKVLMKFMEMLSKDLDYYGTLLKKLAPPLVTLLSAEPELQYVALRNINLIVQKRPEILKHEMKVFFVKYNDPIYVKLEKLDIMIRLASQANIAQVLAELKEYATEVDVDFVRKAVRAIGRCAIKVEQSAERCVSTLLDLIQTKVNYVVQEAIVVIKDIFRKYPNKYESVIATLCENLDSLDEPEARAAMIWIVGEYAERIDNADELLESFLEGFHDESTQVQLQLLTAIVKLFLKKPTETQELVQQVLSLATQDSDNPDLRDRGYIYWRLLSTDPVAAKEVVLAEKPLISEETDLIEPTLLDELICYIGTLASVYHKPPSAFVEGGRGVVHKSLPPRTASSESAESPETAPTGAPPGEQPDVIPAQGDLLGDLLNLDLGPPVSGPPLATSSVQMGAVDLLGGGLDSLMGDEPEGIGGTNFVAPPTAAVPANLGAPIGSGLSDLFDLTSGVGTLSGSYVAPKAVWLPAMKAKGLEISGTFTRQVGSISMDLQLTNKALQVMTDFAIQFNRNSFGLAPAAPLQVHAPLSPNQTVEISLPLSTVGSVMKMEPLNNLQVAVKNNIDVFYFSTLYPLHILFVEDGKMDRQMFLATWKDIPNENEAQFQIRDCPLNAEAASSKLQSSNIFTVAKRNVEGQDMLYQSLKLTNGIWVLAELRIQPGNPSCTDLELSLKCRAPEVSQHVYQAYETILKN
UniProt Q9HDC9: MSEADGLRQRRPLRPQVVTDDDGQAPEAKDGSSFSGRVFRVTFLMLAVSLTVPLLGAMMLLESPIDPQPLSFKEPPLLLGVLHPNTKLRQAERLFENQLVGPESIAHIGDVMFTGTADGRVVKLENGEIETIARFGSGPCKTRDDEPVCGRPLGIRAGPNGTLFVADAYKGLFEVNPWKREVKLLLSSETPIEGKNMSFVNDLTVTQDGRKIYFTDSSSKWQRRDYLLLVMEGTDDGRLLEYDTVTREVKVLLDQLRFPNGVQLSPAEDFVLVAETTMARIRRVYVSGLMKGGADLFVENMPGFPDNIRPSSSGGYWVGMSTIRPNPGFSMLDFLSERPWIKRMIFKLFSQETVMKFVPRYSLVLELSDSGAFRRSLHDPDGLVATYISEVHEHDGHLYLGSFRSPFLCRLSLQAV
UniProt Q9Y5C1: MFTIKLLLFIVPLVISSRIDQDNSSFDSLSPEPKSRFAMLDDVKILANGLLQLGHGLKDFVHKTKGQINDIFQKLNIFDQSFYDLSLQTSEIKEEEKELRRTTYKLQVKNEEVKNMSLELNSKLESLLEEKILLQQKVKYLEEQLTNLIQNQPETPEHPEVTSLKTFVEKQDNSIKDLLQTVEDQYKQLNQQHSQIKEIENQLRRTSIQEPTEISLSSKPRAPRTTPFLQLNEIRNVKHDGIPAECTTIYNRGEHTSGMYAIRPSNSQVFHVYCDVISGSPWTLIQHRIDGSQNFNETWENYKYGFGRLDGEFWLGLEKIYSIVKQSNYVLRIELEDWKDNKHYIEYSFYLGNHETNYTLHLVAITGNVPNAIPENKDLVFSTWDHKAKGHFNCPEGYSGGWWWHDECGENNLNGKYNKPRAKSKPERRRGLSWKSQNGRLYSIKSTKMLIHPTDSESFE
UniProt P16157: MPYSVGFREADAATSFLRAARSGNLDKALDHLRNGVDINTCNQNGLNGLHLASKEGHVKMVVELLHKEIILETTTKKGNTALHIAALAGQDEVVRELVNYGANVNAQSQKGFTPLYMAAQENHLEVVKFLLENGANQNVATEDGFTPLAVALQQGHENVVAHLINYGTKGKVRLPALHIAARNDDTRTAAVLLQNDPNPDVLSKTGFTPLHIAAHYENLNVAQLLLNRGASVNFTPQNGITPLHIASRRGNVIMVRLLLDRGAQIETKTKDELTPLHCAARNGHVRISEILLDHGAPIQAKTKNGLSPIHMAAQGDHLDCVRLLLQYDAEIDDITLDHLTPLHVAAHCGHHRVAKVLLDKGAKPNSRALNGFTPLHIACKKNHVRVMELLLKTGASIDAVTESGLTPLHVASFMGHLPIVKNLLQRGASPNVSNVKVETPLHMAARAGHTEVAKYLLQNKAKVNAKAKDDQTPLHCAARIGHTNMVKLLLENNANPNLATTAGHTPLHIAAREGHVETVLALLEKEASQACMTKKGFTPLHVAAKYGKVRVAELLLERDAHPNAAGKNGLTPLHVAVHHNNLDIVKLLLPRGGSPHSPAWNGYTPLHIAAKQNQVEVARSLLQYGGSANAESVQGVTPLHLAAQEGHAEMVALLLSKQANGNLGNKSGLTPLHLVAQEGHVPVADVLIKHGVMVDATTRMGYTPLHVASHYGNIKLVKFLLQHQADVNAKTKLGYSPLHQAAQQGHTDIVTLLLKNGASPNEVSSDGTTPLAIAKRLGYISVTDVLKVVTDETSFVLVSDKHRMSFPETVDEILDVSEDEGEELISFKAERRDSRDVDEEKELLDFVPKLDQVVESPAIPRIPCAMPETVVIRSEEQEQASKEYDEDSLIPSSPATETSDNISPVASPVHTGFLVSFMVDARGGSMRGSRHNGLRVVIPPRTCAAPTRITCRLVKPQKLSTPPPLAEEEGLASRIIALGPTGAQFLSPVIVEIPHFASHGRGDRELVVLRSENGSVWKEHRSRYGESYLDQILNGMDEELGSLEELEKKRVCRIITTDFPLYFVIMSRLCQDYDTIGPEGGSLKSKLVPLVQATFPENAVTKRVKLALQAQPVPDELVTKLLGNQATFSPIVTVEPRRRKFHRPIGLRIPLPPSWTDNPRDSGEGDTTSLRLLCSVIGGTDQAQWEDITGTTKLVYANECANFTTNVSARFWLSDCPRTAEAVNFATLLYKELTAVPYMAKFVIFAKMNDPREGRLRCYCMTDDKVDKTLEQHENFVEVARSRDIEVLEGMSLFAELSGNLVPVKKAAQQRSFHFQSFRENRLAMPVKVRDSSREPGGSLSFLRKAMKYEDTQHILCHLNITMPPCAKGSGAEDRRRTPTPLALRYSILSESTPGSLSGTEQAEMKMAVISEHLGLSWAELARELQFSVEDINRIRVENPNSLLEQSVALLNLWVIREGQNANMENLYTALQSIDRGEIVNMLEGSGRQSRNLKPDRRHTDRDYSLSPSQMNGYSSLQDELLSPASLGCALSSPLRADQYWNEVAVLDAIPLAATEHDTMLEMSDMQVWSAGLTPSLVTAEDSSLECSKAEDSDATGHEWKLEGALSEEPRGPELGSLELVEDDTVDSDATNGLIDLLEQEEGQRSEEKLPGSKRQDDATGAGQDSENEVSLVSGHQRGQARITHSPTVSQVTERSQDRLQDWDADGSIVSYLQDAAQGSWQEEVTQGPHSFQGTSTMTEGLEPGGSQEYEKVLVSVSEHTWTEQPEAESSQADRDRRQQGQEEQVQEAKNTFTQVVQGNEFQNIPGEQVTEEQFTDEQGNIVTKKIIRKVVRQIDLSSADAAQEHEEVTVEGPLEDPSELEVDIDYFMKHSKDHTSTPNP
UniProt P53680: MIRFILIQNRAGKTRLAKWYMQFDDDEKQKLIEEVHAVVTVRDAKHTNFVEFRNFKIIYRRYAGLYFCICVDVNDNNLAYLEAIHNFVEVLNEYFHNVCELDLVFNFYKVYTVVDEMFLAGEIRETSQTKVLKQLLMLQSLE

Columns and labels:
Assay in all cases: log2 fold change, soluble protein after heating vs DMSO (PISA); higher = thermal stabilisation; K562 cells, 10 uM, 30 min; active = over 0.2 and 3.5 SD of the protein, either way, in both replicates (recomputed)
[1] = compound: CS(=O)(=O)c1ccc(-c2cnc(N)c(C(=O)Nc3ccccc3)n2)cc1
How it was run: (§1)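 Soluble protein was defined as the supernatant after 21,000xg for 90 min. It came from K562 cells at 2×10^6 cells/mL given 10 μM compound for 30 min, heated in aliquots for 3 min across 48°C-58°C, pooled, and extracted in PBS with 0.5% NP-40 at 4°C, and was quantified by TMTpro 16plex LC-MS/MS with equalised channel sums. Thermal stability against control samples, from duplicates, is reported as log2 fold change.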

crizotinib = compound: C[C@@H](Oc1cc(-c2cnn(C3CCNCC3)c2)cnc1N)c1c(Cl)ccc(F)c1Cl [crizotinib]
How it was run: as §1

[2] = compound: C[C@@H]1COCCN1C2=NC(=NC(=C2)C3(CC3)S(=O)(=O)C)C4=C5C=CNC5=CC=C4
How it was run: as §1

[3] = compound: C[C@H](C1=CC=C(C=C1)C(=O)NC2=C3C=CNC3=NC=C2)N
How it was run: as §1

duvelisib = compound: C[C@H](Nc1ncnc2nc[nH]c12)c1cc2cccc(Cl)c2c(=O)n1-c1ccccc1 [duvelisib]
How it was run: as §1

gandotinib = compound: Cc1cc(Nc2cc(CN3CCOCC3)c3nc(C)c(Cc4ccc(Cl)cc4F)n3n2)n[nH]1 [gandotinib]
How it was run: as §1

tozasertib = compound: Cc1cc(Nc2cc(N3CCN(C)CC3)nc(Sc3ccc(NC(=O)C4CC4)cc3)n2)n[nH]1 [tozasertib]
How it was run: as §1

[4] = compound: Cc1cc(SCc2sc(-c3ccc(C(F)(F)F)cc3)nc2C)ccc1OCC(=O)O
How it was run: as §1

doramapimod = compound: Cc1ccc(-n2nc(C(C)(C)C)cc2NC(=O)Nc2ccc(OCCN3CCOCC3)c3ccccc23)cc1 [doramapimod]
How it was run: as §1

ispinesib = compound: Cc1ccc(C(=O)N(CCCN)[C@@H](c2nc3cc(Cl)ccc3c(=O)n2Cc2ccccc2)C(C)C)cc1 [ispinesib]
How it was run: as §1

bafetinib = compound: Cc1ccc(NC(=O)c2ccc(CN3CC[C@H](N(C)C)C3)c(C(F)(F)F)c2)cc1Nc1nccc(-c2cncnc2)n1 [bafetinib]
How it was run: as §1

[5] = compound: Cc1cccc(CC(=O)N2CCc3c2ccc(-c2cn(C)c4ncnc(N)c24)c3F)n1
How it was run: as §1

nilotinib = compound: Cc1cn(-c2cc(NC(=O)c3ccc(C)c(Nc4nccc(-c5cccnc5)n4)c3)cc(C(F)(F)F)c2)cn1 [nilotinib]
How it was run: as §1

[6] = compound: Cc1nc(Nc2n[nH]c3c2CN(C(=O)N[C@H](CN(C)C)c2ccccc2)C3(C)C)c2sccc2n1
How it was run: as §1

dasatinib = compound: Cc1nc(Nc2ncc(C(=O)Nc3c(C)cccc3Cl)s2)cc(N2CCN(CCO)CC2)n1 [dasatinib]
How it was run: as §1

[7] = compound: Cc1ncc(-c2ccnc(Nc3ccc(S(C)(=O)=O)cc3)n2)n1C(C)C
How it was run: as §1

[8] = compound: Cn1cc(-c2ccc3c(c2)CCN3C(=O)Cc2cccc(C(F)(F)F)c2)c2c(N)ncnc21
How it was run: as §1

[9] = compound: Cn1cc(-c2ccc3nnc(C(F)(F)c4ccc5ncccc5c4)n3n2)cn1
How it was run: as §1

tipifarnib = compound: Cn1cncc1[C@@](N)(c1ccc(Cl)cc1)c1ccc2c(c1)c(-c1cccc(Cl)c1)cc(=O)n2C [tipifarnib]
How it was run: as §1

mubritinib = compound: FC(F)(F)c1ccc(/C=C/c2nc(COc3ccc(CCCCn4ccnn4)cc3)co2)cc1 [mubritinib]
How it was run: as §1

Target	log2 fold change [1]	log2 fold change (crizotinib)	log2 fold change [2]	log2 fold change [3]	log2 fold change (duvelisib)	log2 fold change (gandotinib)	log2 fold change (tozasertib)	log2 fold change [4]	log2 fold change (doramapimod)	log2 fold change (ispinesib)	log2 fold change (bafetinib)	log2 fold change [5]	log2 fold change (nilotinib)	log2 fold change [6]	log2 fold change (dasatinib)	log2 fold change [7]	log2 fold change [8]	log2 fold change [9]	log2 fold change (tipifarnib)	log2 fold change (mubritinib)
ANAPC5 (UniProt Q9UJX4)	inactive: -0.017	inactive: 0.006	inactive: -0.037	inactive: 0.095	inactive: -0.018	inactive: -0.038	inactive: 0.059	inactive: 0.016	inactive: 0.058	inactive: -0.01	inactive: 0.058	inactive: 0.028	inactive: -0.022	inactive: 0.005	inactive: 0.002	inactive: -0.046	inactive: -0.029	inactive: -0.068	inactive: 0.025	inactive: -0.011
ARFGEF2 (UniProt Q9Y6D5)	inactive: 0.028	inactive: -0.086	inactive: -0.013	inactive: 0.018	inactive: 0.018	inactive: -0.018	inactive: -0.028	inactive: 0.027	inactive: 0.045	inactive: -0.171	inactive: -0.023	inactive: 0.038	inactive: 0.01	inactive: -0.08	inactive: -0.026	inactive: 0.032	inactive: 0.007	inactive: -0.009	inactive: -0.016	inactive: -0.041
ARF1 (UniProt P84077)	inactive: 0.032	inactive: 0.096	inactive: 0.053	inactive: 0.073	inactive: -0.024		inactive: -0.112	inactive: 0.072	inactive: -0.083	inactive: 0.001	inactive: 0.004		inactive: 0.017	inactive: 0.018	inactive: -0.062	inactive: 0.071	inactive: 0.061	inactive: -0.008	inactive: 0.004	inactive: -0.022
AP1B1 (UniProt Q10567)	inactive: 0.022	inactive: 0.011	inactive: 0.051	inactive: -0.041	inactive: 0.003	inactive: -0.057	inactive: 0.025	inactive: 0.019	inactive: -0.021	inactive: 0.006	inactive: 0.004	inactive: 0.004	inactive: -0.024	inactive: -0.015	inactive: -0.015	inactive: -0.006	inactive: -0.005	inactive: 0.01	inactive: 0	inactive: 0.011
APMAP (UniProt Q9HDC9)	inactive: 0.026	inactive: 0.052	inactive: 0.019	inactive: -0.041	inactive: 0.019	inactive: -0.032	inactive: -0.018	inactive: -0.012	inactive: 0.013	inactive: 0	inactive: -0.043	inactive: -0.052	inactive: -0.038	inactive: 0.015	inactive: 0.043	inactive: -0.006	inactive: 0.036	inactive: 0.007	inactive: 0.006	inactive: 0.042
ANGPTL3 (UniProt Q9Y5C1)	inactive: 0.051	inactive: 0.201	inactive: 0.029	inactive: 0.099	inactive: 0.038		inactive: -0.176	inactive: -0.076	inactive: 0.048	inactive: 0.187	inactive: -0.195				inactive: -0.065		inactive: 0.288	inactive: 0.057	inactive: 0.168	inactive: -0.062
ANXA3 (UniProt P12429)	inactive: -0.035	inactive: -0.026	inactive: 0.084	inactive: -0.041	inactive: 0.111	inactive: -0.055	inactive: -0.024	inactive: 0.044	inactive: 0.02	inactive: -0.006	inactive: -0.051	inactive: 0.027	inactive: -0.045	inactive: -0.018	inactive: -0.044	inactive: 0.02	inactive: 0.067	inactive: 0.023	inactive: -0.011	inactive: 0.015
ARHGDIA (UniProt P52565)	inactive: 0.013	inactive: 0.05	inactive: 0.038	inactive: -0.117	inactive: 0.034	inactive: -0.065	inactive: -0.007	inactive: -0.018	inactive: 0.01	inactive: 0.062	inactive: 0.019	inactive: 0.013	inactive: -0.025	inactive: -0.023	inactive: 0	inactive: -0.004	inactive: 0.032	inactive: -0.011	inactive: -0.095	inactive: 0.086
APOA1 (UniProt P02647)	inactive: 0.036	inactive: 0.211	inactive: 0.182	inactive: 0.296	inactive: 0.137	inactive: -0.069	inactive: 0.036	inactive: -0.13	inactive: -0.068	inactive: 0.075	inactive: 0.086	inactive: -0.157	inactive: 0.035	inactive: -0.018	inactive: 0.004	inactive: 0.163	inactive: 0.261	inactive: 0.152	inactive: 0.326	inactive: -0.145
APOM (UniProt O95445)	inactive: -0.147	inactive: 0.146	inactive: 0.058	inactive: 0.177	inactive: -0.215	inactive: -0.109	inactive: -0.05	inactive: -0.114	inactive: 0.253	inactive: -0.048	inactive: -0.067	inactive: -0.004			inactive: 0.089		inactive: 0.177	inactive: -0.049	inactive: -0.021	inactive: -0.124
ARID1A (UniProt O14497)	inactive: -0.078	inactive: -0.098	inactive: 0.094	inactive: 0.001	inactive: -0.001	inactive: -0.029	inactive: -0.059	inactive: 0.077	inactive: 0.055	inactive: 0.016	inactive: 0.091	inactive: 0.014	inactive: -0.145	inactive: 0.054	inactive: -0.063	inactive: 0.026	inactive: 0.072	inactive: -0.063	inactive: 0.073	inactive: 0.067
ANK1 isoform 14 (UniProt P16157)	inactive: 0.119	inactive: -0.093	inactive: -0.216	inactive: 0.428	inactive: -0.188	inactive: 0.108	inactive: 0.032	inactive: 0.04	inactive: 0.366	inactive: -0.297	inactive: 0.122	inactive: 0.041	inactive: -0.076	inactive: -0.137	inactive: 0.066	inactive: -0.01	inactive: -0.09	inactive: -0.14	inactive: -0.01	inactive: -0.111
ANXA4 (UniProt P09525)	inactive: 0	inactive: -0.038	inactive: 0.075	inactive: 0.004	inactive: 0.017	inactive: -0.067	inactive: -0.013	inactive: 0.052	inactive: -0.06	inactive: 0.012	inactive: -0.023	inactive: 0.06	inactive: 0.023	inactive: -0.045	inactive: -0.041	inactive: 0.044	inactive: 0.011	inactive: 0.081	inactive: -0.034	inactive: 0.019
ARF5 (UniProt P84085)	inactive: 0.034	inactive: 0.035	inactive: 0.064	inactive: -0.071	inactive: 0.056	inactive: -0.058	inactive: -0.022	inactive: -0.069	inactive: -0.02	inactive: 0.023	inactive: -0.011	inactive: -0.03	inactive: 0.014	inactive: 0.01	inactive: 0.01	inactive: 0.029	inactive: 0.004	inactive: 0.008	inactive: -0.002	inactive: 0.015
ARFRP1 (UniProt Q13795)	inactive: -0.024	inactive: -0.004	inactive: 0.091	inactive: -0.027		inactive: -0.159		inactive: -0.069	inactive: 0.003	inactive: 0.027	inactive: 0.025	active: 0.327	inactive: -0.061	inactive: -0.014	inactive: -0.017	inactive: 0.112	inactive: 0.11	inactive: -0.003	inactive: -0.069	inactive: -0.019
AP2S1 (UniProt P53680)	inactive: -0.022	inactive: -0.106	inactive: 0.453	inactive: -0.151		inactive: -0.046		inactive: 0.046	inactive: 0.031	inactive: 0.077	inactive: 0.023	inactive: -0.01	inactive: -0.019	inactive: -0.009	inactive: -0.011	inactive: -0.082	inactive: -0.057	inactive: 0.004	inactive: -0.04	inactive: -0.001
ANLN (UniProt Q9NQW6)	inactive: 0.125	inactive: -0.017	inactive: 0.077		inactive: 0.061	inactive: -0.054		inactive: -0.015	inactive: -0.009	inactive: 0.008	inactive: 0.02	inactive: 0.092	inactive: -0.297	inactive: 0.037	inactive: 0.005	inactive: -0.393		inactive: 0.137	inactive: -0.09	inactive: 0.019

Reprinted from the results shown (2 entries):
Target	log2 fold change [1]	log2 fold change (crizotinib)	log2 fold change [2]	log2 fold change [3]	log2 fold change (duvelisib)	log2 fold change (gandotinib)	log2 fold change (tozasertib)	log2 fold change [4]	log2 fold change (doramapimod)	log2 fold change (ispinesib)	log2 fold change (bafetinib)	log2 fold change [5]	log2 fold change (nilotinib)	log2 fold change [6]	log2 fold change (dasatinib)	log2 fold change [7]	log2 fold change [8]	log2 fold change [9]	log2 fold change (tipifarnib)	log2 fold change (mubritinib)
ANGPTL3 (UniProt Q9Y5C1)	inactive: 0.051	inactive: 0.201	inactive: 0.029	inactive: 0.099	inactive: 0.038		inactive: -0.176	inactive: -0.076	inactive: 0.048	inactive: 0.187	inactive: -0.195				inactive: -0.065		inactive: 0.288	inactive: 0.057	inactive: 0.168	inactive: -0.062
ANXA3 (UniProt P12429)	inactive: -0.035	inactive: -0.026	inactive: 0.084	inactive: -0.041	inactive: 0.111	inactive: -0.055	inactive: -0.024	inactive: 0.044	inactive: 0.02	inactive: -0.006	inactive: -0.051	inactive: 0.027	inactive: -0.045	inactive: -0.018	inactive: -0.044	inactive: 0.02	inactive: 0.067	inactive: 0.023	inactive: -0.011	inactive: 0.015
